We go through one compound from patent US4791118A, “Quinolonecarboxylic acid derivatives and their preparation” (Kyorin Pharmaceutical Co., Ltd., priority 1985, dated 1988).

SMILES strings stand for the structures. Values after ≈ are worked out from the molar mass of the structure shown.

Experiment [1] relates to Shigella sonnei IID 969. Briefly: microbe, parasite or virus in culture. The conditions noted are these: IID969.
Experiment [2] relates to B. thetaiotaomicron (0661). Description: MIC, anaerobic bacteria. Type of experiment: cell-based. The conditions noted are these: Bacteroides thetaiotaomicron, Gram -, 10^6 cells/ml. The text has this: (§1) | Organism (10^6 cells/ml)
The subject of experiment [3] is Propionibacterium acens 11828. Briefly: MIC, anaerobic bacteria. The class given is cell-based.
The test system of experiment [4] is E. coli ML 4707. Description: MIC, aerobic bacteria. Type of experiment: cell-based. Conditions: Escherichia coli, ML4707, Gram -, 10^6 cells/ml.
Source text: as §1

For experiment [5], the system named is F. varium KYA 8501. Briefly: microbe, parasite or virus in culture. The conditions noted are these: Fusobacterium varium, KYA8501.

With `O=C(O)c1cn(C2CC2)c2cc(N3CCNCC3)c(F)cc2c1=O` [CPFX, ciprofloxacin, reference compound], the MIC turned out to be 0.0125 µg/mL (≈ 0.0377 µM) in experiment [1]; 12.5 µg/mL (≈ 37.7 µM) in experiment [2]; 12.5 µg/mL (≈ 37.7 µM) in experiment [3]; 0.0125 µg/mL (≈ 0.0377 µM) in experiment [4]; 12.5 µg/mL (≈ 37.7 µM) in experiment [5].
